# Measurements from PubChem BioAssay AID1439 (NMMLSC, 2008).
# Chains of the proteins cited; added tags and fusions are not shown.
# UniProt P09471, whole entry, looked up: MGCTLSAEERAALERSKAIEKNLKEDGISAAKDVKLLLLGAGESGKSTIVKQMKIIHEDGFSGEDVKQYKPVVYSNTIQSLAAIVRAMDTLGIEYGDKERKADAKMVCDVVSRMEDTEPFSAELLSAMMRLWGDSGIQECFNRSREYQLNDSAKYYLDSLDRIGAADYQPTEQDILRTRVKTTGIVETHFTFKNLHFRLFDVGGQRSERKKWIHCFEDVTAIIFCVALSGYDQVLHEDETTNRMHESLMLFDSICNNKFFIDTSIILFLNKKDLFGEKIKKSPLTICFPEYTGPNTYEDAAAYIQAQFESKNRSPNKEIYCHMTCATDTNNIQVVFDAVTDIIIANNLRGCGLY
# About 770 (0.35%) of roughly 220,000 compounds were called active. Inconclusive means that the source gave no clear call. Such entries were picked first, then a sample of the others. Cut-off read from the data, not from the text of the source: active = binding response below about 49% or above about 150%; inconclusive = no clear call, values can overlap the other calls; inactive = in between.
# Target: Guanine nucleotide-binding protein G(o) subunit alpha (Homo sapiens) (UniProt P09471)
# Assay: RGS7-Galphao binding modulators, primary screen, biochemical, multiplexed bead flow cytometry (AID 1439);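 note: fluorescent Galphao held in activated GDP-AlF4 state binding bead-coupled RGS7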
# Conditions: at 10 µM, actives lie on both sides
row,Compound,binding response (% of control)
1,COCCN1Cc2cccc(C(=O)NCc3ccccn3)c2C1=O,inactive: 111%
2,CCNC(=S)NN=C1c2ccccc2-c2ccccc21,inconclusive: 81.1%
3,Nc1ccc(C23CC4CC(CC(C4)C2)C3)cc1,inconclusive: 93.5%
4,CC(OC(=O)CN1C(=O)C2C3C=CC(C4CC34)C2C1=O)C(=O)c1ccccc1 (configuration not stated),inconclusive: 91.2%
5,COc1cccc(/C=N/NC(=O)C(c2ccncc2)N2CCOCC2)c1 (configuration not stated),inconclusive: 90.4%
6,Cc1nn(-c2ccccc2)c(Cl)c1C(=O)Nc1ccc(N2CCOCC2)cc1,inconclusive: 124%
7,COc1cc(NS(C)(=O)=O)cc(OC)c1OC,inconclusive: 94%
8,COC(C[C@H](O)C[C@@H](O)COCc1ccccc1)OC,inconclusive: 105%
9,CC(=O)c1ccc(NC(=O)N2C3CCC2CC(O)(c2cccnc2)C3)cc1 (configuration not stated),inactive: 89.8%
10,O=C1CS/C(=N\NC(=O)c2ccccc2)N1,inconclusive: 130%
11,COCC(C)N=C1NN=C(c2cc(C)n(Cc3ccccc3Cl)c2C)CS1 (configuration not stated),inconclusive: 122%
12,Cc1cc(NC(=O)/C=C/c2ccccc2)c(C(C)C)cc1O,inconclusive: 88%
13,COc1ccc(C2Nc3cc(OC)ccc3-n3cccc32)cc1 (configuration not stated),inconclusive: 19.8%
14,COc1cc(CN2CCC(CO)(CCOc3ccccc3)CC2)cc(OC)c1,inconclusive: 109%
15,O=Cc1cccn1-c1ccc(O)cc1,inactive: 101%
16,Cc1csc2ncnc(NC3CCN(Cc4ccccc4)CC3)c12,inconclusive: 70.3%
17,Cc1[nH]c(=O)[nH]c(=O)c1/C=C/C(=O)O,inconclusive: 114%
18,Cc1nc2c3ccccc3nc(NNC(=O)CCC(=O)NC(C)C)n2n1,inactive: 83%
19,Cc1cc(OC(F)F)ccc1NC(=O)Nc1ccc([N+](=O)[O-])cc1,inactive: 104%
20,O=C(O)CC1(CC(=O)Nc2ccc(Cl)cc2C(=O)c2ccccc2)CCCC1,inconclusive: 165%
21,Cn1c(SCC(=O)Nc2ccc(Br)cc2)nc(O)cc1=O,inconclusive: 110%
22,Cc1cc(C)n(C2CC(=O)N(c3ccc(C)c(Cl)c3)C2=O)n1 (configuration not stated),inconclusive: 85.2%
23,CCOc1ccc(S(=O)(=O)N2CCCCC2)c(C)c1C,inconclusive: 110%
24,COc1cc(O)c(C(CCN2CCN(c3ccccc3)CC2)c2ccc(N(C)C)cc2)c(OC)c1 (configuration not stated),inconclusive: 106%
25,COc1ccc(CNS(=O)(=O)NCc2ccccc2)cc1OC,inconclusive: 98.3%
26,O=C1NC(SCCCF)=N/C1=C/c1ccc(-n2cncn2)cc1,inconclusive: 102%
27,CC1CCCN(CC(O)COCc2ccccc2)C1 (configuration not stated),inconclusive: 116%

# Ordered by molar mass (smallest number first): part of the list above
row,Compound,binding response (% of control)
10,O=C1CS/C(=N\NC(=O)c2ccccc2)N1,inconclusive: 130%
16,Cc1csc2ncnc(NC3CCN(Cc4ccccc4)CC3)c12,inconclusive: 70.3%
5,COc1cccc(/C=N/NC(=O)C(c2ccncc2)N2CCOCC2)c1 (configuration not stated),inconclusive: 90.4%
